Article PMC11041666
Results are given in words; binding and its absence hold for the method and conditions named. In cells and extracts the contact can be indirect. Here binding means that the protein was enriched with, or labelled near, the bait; the list need not be complete.

Protein sequences, listed by entry. Tags and fused reporters are not part of them. Residues count along the entry.
UniProt P23242: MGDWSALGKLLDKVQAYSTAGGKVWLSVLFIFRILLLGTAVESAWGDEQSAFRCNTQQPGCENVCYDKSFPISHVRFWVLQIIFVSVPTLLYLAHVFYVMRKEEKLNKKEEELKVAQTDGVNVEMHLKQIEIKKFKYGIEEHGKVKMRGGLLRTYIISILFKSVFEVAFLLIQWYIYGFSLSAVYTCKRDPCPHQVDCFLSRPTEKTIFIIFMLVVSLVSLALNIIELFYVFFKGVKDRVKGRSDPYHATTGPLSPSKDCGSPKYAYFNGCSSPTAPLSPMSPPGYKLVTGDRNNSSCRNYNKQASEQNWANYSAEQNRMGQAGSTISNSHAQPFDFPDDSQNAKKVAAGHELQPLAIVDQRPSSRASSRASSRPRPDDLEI
UniProt Q01815: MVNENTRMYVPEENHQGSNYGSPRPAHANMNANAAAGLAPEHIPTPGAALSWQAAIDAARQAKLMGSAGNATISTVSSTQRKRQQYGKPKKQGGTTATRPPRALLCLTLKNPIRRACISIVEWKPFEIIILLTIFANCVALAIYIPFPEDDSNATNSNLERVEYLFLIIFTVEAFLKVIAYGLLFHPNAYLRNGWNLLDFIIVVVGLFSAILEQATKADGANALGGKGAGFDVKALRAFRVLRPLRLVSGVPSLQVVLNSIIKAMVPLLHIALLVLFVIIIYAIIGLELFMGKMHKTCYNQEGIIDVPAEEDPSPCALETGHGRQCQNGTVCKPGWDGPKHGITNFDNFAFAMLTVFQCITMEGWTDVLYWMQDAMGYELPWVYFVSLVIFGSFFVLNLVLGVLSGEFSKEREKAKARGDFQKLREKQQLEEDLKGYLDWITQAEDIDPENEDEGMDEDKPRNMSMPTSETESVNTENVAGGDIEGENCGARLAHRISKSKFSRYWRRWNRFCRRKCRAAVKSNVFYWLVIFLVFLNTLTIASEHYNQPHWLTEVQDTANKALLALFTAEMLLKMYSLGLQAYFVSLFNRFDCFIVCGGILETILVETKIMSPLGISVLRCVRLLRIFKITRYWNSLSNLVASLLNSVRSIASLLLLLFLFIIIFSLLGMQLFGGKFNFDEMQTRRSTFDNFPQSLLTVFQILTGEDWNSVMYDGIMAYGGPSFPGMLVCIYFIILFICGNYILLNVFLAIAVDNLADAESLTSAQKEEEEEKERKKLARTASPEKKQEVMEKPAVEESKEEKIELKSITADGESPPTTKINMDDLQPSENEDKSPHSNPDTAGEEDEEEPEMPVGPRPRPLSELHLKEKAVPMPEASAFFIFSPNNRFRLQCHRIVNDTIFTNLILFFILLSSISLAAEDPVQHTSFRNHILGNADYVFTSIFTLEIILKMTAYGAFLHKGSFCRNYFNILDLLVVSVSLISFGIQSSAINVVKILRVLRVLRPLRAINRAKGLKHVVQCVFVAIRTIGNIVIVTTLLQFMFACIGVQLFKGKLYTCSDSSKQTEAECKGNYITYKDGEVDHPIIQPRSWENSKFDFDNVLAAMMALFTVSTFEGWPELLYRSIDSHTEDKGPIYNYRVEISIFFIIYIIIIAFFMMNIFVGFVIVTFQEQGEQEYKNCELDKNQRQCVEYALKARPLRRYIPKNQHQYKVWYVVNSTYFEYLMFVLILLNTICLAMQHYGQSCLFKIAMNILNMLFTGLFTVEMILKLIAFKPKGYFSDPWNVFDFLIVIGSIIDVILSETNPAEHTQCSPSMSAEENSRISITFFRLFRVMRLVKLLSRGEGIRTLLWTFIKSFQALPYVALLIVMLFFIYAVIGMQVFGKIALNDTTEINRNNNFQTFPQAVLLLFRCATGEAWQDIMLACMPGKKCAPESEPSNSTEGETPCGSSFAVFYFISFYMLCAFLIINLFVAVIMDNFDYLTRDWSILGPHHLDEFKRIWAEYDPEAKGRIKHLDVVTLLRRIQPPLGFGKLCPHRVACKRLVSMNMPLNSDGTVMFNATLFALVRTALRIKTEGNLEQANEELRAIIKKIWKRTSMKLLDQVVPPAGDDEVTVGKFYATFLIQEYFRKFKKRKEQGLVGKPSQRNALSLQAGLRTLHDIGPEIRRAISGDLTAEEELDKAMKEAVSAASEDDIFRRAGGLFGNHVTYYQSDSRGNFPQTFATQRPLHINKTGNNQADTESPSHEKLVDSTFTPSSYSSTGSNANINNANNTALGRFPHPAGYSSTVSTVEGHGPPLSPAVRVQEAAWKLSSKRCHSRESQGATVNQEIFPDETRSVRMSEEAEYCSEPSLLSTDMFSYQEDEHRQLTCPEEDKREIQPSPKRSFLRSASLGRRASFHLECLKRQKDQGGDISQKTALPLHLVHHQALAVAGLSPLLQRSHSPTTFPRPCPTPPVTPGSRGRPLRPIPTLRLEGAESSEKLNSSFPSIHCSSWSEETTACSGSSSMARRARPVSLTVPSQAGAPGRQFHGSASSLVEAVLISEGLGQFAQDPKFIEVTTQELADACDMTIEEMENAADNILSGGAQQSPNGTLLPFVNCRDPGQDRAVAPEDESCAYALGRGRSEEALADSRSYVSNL
UniProt P97414: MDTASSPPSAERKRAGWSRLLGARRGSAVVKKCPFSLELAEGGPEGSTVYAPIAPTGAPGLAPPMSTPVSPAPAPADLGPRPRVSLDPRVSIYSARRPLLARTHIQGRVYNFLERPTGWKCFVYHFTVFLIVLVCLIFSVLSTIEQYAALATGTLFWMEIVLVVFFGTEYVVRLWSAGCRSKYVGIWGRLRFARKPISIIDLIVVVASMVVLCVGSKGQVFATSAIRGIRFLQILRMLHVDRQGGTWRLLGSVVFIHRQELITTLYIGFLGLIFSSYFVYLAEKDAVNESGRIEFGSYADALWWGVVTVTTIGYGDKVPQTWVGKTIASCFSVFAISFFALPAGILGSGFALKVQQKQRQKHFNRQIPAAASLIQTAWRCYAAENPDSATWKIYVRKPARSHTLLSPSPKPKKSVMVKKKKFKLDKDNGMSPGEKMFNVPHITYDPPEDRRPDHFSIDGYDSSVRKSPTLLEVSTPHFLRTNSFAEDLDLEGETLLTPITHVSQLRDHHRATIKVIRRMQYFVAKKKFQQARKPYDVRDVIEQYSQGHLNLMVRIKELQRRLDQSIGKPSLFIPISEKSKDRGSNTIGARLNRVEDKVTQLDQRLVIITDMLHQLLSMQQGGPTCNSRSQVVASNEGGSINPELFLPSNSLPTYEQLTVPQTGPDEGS
UniProt Q3TL44, residues 87-975: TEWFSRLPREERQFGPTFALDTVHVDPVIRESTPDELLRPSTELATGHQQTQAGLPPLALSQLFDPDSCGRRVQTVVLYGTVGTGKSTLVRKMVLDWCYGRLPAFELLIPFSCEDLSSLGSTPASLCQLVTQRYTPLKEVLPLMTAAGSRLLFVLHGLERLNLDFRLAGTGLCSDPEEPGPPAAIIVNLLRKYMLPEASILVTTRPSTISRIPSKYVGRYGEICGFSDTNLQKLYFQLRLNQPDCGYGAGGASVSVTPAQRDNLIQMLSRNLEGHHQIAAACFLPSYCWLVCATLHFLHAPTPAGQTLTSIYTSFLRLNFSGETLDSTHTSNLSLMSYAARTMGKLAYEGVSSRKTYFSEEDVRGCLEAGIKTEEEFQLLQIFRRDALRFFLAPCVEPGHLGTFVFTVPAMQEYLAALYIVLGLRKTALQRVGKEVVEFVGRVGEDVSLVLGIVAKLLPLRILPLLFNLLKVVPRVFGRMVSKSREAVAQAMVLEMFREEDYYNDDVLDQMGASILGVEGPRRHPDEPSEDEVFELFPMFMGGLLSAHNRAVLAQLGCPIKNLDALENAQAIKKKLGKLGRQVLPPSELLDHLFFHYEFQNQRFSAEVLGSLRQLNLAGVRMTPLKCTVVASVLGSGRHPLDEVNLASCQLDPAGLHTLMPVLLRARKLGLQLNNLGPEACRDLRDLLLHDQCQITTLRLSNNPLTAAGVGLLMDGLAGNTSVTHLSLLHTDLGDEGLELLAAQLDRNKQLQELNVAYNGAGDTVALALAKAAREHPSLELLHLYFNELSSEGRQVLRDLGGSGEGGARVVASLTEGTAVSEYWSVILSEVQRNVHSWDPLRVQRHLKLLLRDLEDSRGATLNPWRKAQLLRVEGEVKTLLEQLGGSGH
UniProt Q80YT7: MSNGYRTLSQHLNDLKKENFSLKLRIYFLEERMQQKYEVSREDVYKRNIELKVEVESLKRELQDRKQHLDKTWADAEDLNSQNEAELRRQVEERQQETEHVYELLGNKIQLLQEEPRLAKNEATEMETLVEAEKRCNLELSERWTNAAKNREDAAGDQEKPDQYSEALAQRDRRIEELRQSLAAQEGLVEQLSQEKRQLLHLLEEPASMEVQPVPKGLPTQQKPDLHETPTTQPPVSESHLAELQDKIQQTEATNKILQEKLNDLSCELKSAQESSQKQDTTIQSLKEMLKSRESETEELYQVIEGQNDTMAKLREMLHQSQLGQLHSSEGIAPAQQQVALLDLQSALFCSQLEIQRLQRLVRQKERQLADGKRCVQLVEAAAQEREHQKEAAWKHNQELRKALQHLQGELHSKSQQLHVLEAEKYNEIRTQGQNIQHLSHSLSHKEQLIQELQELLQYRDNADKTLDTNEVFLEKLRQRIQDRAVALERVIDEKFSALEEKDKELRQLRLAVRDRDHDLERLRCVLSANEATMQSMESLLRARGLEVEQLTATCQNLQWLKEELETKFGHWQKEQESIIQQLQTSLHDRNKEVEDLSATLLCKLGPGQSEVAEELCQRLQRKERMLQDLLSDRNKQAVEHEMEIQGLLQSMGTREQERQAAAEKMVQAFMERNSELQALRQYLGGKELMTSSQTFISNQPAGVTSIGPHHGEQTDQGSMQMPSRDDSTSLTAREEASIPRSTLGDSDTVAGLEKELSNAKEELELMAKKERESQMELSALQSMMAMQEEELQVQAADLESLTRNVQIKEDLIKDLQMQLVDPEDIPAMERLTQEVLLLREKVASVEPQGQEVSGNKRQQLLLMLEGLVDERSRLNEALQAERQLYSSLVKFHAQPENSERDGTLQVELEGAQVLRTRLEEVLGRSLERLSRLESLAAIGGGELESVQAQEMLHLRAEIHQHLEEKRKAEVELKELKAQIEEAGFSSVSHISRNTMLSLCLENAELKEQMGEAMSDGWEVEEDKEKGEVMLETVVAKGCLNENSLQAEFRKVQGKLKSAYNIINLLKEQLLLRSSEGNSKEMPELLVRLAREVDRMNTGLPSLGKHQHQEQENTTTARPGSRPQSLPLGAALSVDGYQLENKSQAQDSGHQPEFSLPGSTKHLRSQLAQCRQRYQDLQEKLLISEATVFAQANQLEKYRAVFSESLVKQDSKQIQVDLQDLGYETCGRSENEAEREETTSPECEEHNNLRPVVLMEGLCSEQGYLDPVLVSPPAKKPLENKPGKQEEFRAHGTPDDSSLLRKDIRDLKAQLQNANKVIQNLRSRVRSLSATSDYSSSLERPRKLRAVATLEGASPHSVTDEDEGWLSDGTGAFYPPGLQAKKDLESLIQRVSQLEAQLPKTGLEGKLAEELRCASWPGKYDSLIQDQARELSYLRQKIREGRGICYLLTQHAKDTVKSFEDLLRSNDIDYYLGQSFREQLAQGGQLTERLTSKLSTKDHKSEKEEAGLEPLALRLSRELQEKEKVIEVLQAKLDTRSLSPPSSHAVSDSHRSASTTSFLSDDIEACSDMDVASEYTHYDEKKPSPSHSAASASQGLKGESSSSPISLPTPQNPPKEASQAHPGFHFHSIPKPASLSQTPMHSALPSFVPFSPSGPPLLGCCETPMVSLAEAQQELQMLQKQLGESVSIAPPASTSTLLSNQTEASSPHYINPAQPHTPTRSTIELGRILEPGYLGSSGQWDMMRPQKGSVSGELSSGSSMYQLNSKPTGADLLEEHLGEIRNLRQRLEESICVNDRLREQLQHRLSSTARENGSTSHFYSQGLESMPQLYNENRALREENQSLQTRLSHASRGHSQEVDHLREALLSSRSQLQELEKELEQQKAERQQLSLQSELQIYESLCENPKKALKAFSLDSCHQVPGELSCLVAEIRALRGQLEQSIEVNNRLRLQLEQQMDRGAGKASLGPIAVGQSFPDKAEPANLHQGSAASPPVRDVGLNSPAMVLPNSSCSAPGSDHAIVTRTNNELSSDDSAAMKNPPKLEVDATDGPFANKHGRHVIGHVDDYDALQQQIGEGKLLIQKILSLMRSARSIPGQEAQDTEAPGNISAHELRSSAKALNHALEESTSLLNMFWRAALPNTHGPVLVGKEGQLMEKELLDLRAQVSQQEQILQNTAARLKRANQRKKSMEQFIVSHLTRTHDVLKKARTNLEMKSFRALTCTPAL

Legend:
[1] = target: Inf2 (mouse (endogenous in murine cardiac tissue)) (UniProt Q0GNC1); experiment: affinity purification with mass spectrometry; triplicate IPs from murine cardiac tissue with antibodies against Inf2 or IgG; LC-MS/MS
[2] = target: Gja1 (Cx43) (mouse (endogenous in murine cardiac tissue)) (UniProt P23242); experiment: affinity purification with mass spectrometry; IP of the endogenous channel with 2 µg channel antibody from 3 mg membrane-enriched mouse heart lysate (1% NP-40, 1% sodium deoxycholate), overnight at 4 °C, Dynabeads Protein G, quadruplicate; LC-MS/MS; significant interactors against control by volcano plot
[3] = target: Cacna1c (Cav1.2) (mouse (endogenous in murine cardiac tissue)) (UniProt Q01815); experiment: as above
[4] = target: Kcnq1 (Kv7.1/Kcnq1) (mouse (endogenous in murine cardiac tissue)) (UniProt P97414); experiment: as above
[5] = target: T1, Kcnj5 (Kir3.4) (mouse (endogenous in murine cardiac tissue)) (UniProt P48545); experiment: as above
T1 sequence: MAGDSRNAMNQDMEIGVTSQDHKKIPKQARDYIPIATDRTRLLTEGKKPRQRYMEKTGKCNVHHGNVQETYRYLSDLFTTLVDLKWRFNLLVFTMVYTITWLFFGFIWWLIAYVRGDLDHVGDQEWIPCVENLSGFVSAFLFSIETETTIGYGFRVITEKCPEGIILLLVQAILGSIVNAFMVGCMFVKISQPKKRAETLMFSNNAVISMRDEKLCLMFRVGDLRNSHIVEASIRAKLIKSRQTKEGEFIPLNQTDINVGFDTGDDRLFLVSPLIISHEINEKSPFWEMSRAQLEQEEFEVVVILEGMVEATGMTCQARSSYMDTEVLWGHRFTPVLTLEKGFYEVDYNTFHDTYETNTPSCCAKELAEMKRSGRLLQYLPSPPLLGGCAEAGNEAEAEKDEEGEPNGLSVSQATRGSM

[6] = target: Kcnh2 (Kv11.1/ERG) (mouse (endogenous in murine cardiac tissue)) (UniProt O35219); experiment: as above
[7] = target: T2, Kcnd2 (Kv4.2) (mouse (endogenous in murine cardiac tissue)) (UniProt Q9Z0V2); experiment: as above
T2 sequence: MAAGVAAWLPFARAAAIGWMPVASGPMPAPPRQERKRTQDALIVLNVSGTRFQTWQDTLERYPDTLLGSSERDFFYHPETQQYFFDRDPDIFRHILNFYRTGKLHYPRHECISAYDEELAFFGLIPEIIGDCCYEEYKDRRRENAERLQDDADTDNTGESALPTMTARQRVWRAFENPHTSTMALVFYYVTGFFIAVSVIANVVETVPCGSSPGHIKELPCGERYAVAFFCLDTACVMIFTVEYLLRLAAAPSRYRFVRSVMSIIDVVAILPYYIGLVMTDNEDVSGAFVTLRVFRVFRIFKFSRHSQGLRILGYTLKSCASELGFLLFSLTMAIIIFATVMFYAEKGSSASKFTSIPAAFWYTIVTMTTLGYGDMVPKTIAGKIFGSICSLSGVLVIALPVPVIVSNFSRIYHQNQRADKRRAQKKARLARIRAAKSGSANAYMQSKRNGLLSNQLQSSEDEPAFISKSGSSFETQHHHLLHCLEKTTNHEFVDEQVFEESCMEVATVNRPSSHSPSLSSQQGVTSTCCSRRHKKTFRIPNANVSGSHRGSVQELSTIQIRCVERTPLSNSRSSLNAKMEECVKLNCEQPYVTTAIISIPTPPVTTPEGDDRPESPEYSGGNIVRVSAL

[8] = target: Hcn4 (HCN4) (mouse (endogenous in murine cardiac tissue)) (UniProt O70507); experiment: as above
[9] = target: T3, Kcnj2 (Kir2.1) (mouse (endogenous in murine cardiac tissue)) (UniProt P35561); experiment: as above
T3 sequence: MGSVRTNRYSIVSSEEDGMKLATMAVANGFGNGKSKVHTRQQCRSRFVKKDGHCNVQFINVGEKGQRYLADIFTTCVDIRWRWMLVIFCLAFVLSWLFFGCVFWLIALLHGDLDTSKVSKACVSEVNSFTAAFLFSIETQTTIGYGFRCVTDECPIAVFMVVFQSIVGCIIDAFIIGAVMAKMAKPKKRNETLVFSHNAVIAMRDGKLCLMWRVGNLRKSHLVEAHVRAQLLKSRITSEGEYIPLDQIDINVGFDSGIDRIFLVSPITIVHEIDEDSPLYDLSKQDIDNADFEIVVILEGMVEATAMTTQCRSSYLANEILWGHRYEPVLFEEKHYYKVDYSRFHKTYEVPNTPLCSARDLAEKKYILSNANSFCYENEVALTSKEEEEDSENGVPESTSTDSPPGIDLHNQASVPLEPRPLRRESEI

[10] = target: Scn5a (Nav1.5) (mouse (endogenous in murine cardiac tissue)) (UniProt Q9JJV9); experiment: as above

Cacna1c (Cav1.2) (from UniProt Q01815 1-2139)
binding [1]: binds
binding [2]: binds

Cacnb1 (from UniProt Q8R3Z5 1-597)
binding [3]: binds

Gja1 (Cx43) (from UniProt P23242 1-382)
binding [4]: binds
binding [3]: binds

Inf2 (from UniProt Q0GNC1 1-1273)
binding [3]: binds

Kcnh2 (Kv11.1/ERG) (from UniProt O35219 1-1162)
binding [4]: binds

Myzap (from UniProt Q3UIJ9)
binding [5]: binds
binding [6]: binds
binding [7]: binds

Nlrx1 (from UniProt Q3TL44 87-975)
binding [4]: binds
binding [8]: binds
binding [6]: binds

Nos1ap (from UniProt Q9D3A8 1-503)
binding [4]: binds
binding [2]: binds

Nrap (from UniProt Q80XB4 1-1728)
binding [4]: binds

Pde4dip (from UniProt Q80YT7 1-2224)
binding [4]: binds
binding [8]: binds
binding [9]: binds

gelsolin (Gsn) (from UniProt P13020 26-780)
binding [10]: binds
